Drawing on publication PMC10919877, this text covers binding for 1 substance.

By UniProt entry, the sequences of proteins in these tests, tags left out. Residues count along the entry.
UniProt Q00960, residues 27-1482: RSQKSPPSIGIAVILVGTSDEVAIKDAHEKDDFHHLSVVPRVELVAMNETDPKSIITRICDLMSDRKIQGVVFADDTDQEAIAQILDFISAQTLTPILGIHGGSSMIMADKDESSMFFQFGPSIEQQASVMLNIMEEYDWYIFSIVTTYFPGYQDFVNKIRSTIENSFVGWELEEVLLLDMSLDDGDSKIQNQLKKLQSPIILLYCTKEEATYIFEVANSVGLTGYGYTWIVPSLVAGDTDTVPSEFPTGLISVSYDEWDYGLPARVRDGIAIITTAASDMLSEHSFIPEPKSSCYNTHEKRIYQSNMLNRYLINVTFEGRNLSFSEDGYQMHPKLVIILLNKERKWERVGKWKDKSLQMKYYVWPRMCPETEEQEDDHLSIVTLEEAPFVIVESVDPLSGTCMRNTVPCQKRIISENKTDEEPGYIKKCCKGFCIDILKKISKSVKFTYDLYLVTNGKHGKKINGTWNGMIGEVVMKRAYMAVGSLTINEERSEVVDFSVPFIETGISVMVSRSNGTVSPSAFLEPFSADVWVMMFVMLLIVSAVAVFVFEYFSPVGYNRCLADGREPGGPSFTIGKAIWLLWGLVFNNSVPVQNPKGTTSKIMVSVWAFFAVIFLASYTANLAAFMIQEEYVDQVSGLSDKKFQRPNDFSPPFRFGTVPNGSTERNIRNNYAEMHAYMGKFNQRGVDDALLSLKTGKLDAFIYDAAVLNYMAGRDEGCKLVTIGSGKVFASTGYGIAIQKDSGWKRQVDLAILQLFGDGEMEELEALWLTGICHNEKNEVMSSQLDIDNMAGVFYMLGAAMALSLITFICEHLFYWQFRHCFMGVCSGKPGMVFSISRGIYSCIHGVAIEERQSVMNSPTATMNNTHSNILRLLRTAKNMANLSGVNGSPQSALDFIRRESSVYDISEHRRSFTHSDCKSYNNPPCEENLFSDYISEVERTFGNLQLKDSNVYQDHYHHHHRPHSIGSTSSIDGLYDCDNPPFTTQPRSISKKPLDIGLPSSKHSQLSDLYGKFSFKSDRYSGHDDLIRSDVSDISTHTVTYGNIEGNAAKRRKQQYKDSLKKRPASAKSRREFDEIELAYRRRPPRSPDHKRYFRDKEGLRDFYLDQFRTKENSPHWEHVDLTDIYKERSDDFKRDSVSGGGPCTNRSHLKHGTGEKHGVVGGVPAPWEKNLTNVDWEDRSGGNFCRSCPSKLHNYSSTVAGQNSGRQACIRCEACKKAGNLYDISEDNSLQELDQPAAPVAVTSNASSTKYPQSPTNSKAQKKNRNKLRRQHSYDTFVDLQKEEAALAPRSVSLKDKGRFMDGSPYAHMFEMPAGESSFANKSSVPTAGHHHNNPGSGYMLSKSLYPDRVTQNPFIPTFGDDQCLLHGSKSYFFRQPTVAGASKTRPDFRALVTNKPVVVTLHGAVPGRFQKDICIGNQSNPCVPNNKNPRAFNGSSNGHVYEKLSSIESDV

These are yes or no findings as the source states them, for the method shown. Binding seen in cells or lysates may run through a third protein. Some binding calls cover weakened binding; strength is not graded here. Where a sequence is shown, tags or fusion partners need not be part of it.

This assay addresses T1, FAM81A-FLAG (full-length mouse FAM81A with 3xFLAG) (mouse) (UniProt Q3UXZ6).
T1 sequence: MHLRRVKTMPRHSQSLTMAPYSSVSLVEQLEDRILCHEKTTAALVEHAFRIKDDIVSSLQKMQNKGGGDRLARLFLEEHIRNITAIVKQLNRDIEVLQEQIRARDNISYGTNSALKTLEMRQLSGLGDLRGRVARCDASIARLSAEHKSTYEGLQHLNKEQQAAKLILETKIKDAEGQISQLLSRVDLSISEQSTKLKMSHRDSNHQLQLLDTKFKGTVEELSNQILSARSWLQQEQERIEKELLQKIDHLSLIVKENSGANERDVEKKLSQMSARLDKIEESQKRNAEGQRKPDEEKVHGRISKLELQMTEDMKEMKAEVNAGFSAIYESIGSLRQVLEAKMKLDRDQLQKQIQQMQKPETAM
The experiment in a line: co-IP; HEK293T cells co-transfected with FLAG-tagged FAM81A (or mutant) and a GFP-tagged partner, lysed 24 h later in 1% Triton X-100, 50 mM Tris-HCl pH 7.4, 150 mM NaCl, 1 mM EDTA; ANTI-FLAG M2 Affinity Gel, 90 min at 4°C; blots with anti-GFP and anti-FLAG.

With “GFP-GluN2B (pCI-EGFP-NR2b wt) (from UniProt Q00960 27-1482) (receptor)”, the binding result is “binds”.
